Measured values: publication PMC6203740
Numbering of substitutions follows the chain as printed. In names and notes the source's numbering stands. No constants are given. Whether binding was seen depends on the method and setting. For some assays here: In cells and extracts the contact can be indirect. Some entries that bind do so weakly or less than the wild type. For some assays here: Where a sequence is shown, tags or fusion partners need not be part of it. Values belong to the molecule of their own block, whether it stands above or below them.

Amino acid sequences for entries named in this document (tags omitted).
UniProt Q9QZL0: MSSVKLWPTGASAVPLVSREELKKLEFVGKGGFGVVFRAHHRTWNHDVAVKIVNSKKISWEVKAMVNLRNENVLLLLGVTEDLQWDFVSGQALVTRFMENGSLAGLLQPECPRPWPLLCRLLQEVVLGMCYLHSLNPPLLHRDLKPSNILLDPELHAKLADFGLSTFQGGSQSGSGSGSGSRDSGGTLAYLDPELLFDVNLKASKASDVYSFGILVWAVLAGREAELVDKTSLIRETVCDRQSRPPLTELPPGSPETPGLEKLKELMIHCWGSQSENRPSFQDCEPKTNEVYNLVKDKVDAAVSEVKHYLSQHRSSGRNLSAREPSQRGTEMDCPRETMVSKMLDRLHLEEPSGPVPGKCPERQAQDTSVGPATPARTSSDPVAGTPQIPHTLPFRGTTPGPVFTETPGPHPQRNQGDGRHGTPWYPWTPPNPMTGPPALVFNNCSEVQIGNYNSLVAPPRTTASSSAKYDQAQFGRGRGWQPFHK

Experiments:
[1] = biological target: T1, Myc-MLKL (murine mixed lineage kinase domain-like) (mouse) (UniProt Q9D2Y4); test: co-IP; HEK293T co-transfected with a FRET probe, Myc-MLKL and FLAG-RIPK3; 24 h after transfection IP with anti-Myc or control antibody; immunoblot
T1 sequence: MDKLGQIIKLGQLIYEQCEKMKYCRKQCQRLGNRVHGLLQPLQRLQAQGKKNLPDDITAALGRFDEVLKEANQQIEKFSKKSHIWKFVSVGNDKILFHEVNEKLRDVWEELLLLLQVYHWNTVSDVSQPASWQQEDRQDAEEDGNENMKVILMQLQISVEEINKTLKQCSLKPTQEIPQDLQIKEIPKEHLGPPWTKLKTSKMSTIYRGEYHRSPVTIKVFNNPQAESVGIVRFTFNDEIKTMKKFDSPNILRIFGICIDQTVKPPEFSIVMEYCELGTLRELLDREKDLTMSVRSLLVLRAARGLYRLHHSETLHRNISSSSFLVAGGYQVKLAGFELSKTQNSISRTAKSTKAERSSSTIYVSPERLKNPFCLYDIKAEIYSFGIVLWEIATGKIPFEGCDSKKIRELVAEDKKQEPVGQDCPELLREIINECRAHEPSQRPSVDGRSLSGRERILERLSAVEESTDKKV

[2] = biological target: MLKL Q343A (auto-activated form of murine MLKL) (mouse) (UniProt Q9D2Y4); test: SDS-PAGE under non-reducing conditions with immunoblot; Mlkl-/- MEFs-SMART/MLKL Q343A treated with Dox for the indicated times; lysates on non-reducing SDS-PAGE, blot with anti-MLKL

- binding [1]: binds
Molecule: FLAG-RIPK3 (murine receptor-interacting protein kinase 3) (from UniProt Q9QZL0 1-486)

- binding [2]: binds
B1: MLKL Q343A (auto-activated form of murine MLKL) (protein, UniProt Q9D2Y4 1-472)
chain: T1 sequence with Q343A
